This note sets out measurements from the supplement of paper PMC4604168 (melanoma cell lines).

The structures appear in SMILES notation. This is one part of the list. Single values are uncertain, as repeats are few or missing.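 Imaging used 1,536-well plates; nuclei positive for cleaved PARP by antibody were divided by total DNA-stained nuclei to yield the apoptosis fraction. Doses for screening kept most cells viable, and cell lines differ markedly in resting and induced cleaved-PARP levels.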

This test deals with G361. The test can be described thus: cleaved PARP positive nuclei fraction relative to DMSO control; melanoma cells; higher = more apoptosis. The following applies: library dose: low library concentration; 72 h.
Consider `CN(c1ncccc1CNc1nc(Nc2ccc3c(c2)CC(=O)N3)ncc1C(F)(F)F)S(C)(=O)=O` + CCCS(=O)(=O)Nc1ccc(F)c(C(=O)c2c[nH]c3ncc(Cl)cc23)c1F [PLX4720] (first compound 0.08 µM, partner dose 0.08 µM), for which the “cleaved PARP positive nuclei fraction” value worked out at 204%.
The figure for `CCCCCCCCc1ccc(CCC(N)(CO)CO)cc1` [fingolimod] + Nc1nc(F)nc2c1ncn2[C@@H]1O[C@H](CO)[C@@H](O)[C@@H]1O [fludarabine] (first compound 2 µM, partner dose 0.2 µM) is 115%.
The figure for `CCCCCCCCc1ccc(CCC(N)(CO)CO)cc1` [fingolimod] + CC(=O)c1c(C)c2cnc(Nc3ccc(N4CCNCC4)cn3)nc2n(C2CCCC2)c1=O [palbociclib] (first compound 2 µM, partner dose 0.04 µM) is 142%; for `CC(=O)O[C@@]12CO[C@@H]1C[C@H](O)[C@@]1(C)C(=O)[C@H](O)C3=C(C)[C@@H](OC(=O)[C@H](O)[C@@H](NC(=O)OC(C)(C)C)c4ccccc4)C[C@@](O)([C@@H](OC(=O)c4ccccc4)[C@H]21)C3(C)C` [Docetaxel] + Cc1cc(Nc2cc(N3CCN(C)CC3)nc(/C=C/c3ccccc3)n2)n[nH]1 [ENMD2076] (first compound 0.0001 µM, partner dose 0.04 µM) it is 450%.
For `CC1(C)CCC(c2ccc(Cl)cc2)=C(CN2CCN(c3ccc(C(=O)NS(=O)(=O)c4ccc(N[C@H](CCN5CCOCC5)CSc5ccccc5)c(S(=O)(=O)C(F)(F)F)c4)cc3)CC2)C1` + CCCS(=O)(=O)Nc1ccc(F)c(C(=O)c2c[nH]c3ncc(Cl)cc23)c1F [PLX4720] (first compound 0.4 µM, partner dose 0.08 µM), the “cleaved PARP positive nuclei fraction” value was determined as 207%.
